Measurements taken from the supplement of paper PMC10849652.
The list shows a part of the results.

By UniProt entry, the sequences of proteins in these tests, tags left out. Where a name states a change or a piece, a line headed by the entry shows the natural chain unless it says otherwise.
UniProt Q14155: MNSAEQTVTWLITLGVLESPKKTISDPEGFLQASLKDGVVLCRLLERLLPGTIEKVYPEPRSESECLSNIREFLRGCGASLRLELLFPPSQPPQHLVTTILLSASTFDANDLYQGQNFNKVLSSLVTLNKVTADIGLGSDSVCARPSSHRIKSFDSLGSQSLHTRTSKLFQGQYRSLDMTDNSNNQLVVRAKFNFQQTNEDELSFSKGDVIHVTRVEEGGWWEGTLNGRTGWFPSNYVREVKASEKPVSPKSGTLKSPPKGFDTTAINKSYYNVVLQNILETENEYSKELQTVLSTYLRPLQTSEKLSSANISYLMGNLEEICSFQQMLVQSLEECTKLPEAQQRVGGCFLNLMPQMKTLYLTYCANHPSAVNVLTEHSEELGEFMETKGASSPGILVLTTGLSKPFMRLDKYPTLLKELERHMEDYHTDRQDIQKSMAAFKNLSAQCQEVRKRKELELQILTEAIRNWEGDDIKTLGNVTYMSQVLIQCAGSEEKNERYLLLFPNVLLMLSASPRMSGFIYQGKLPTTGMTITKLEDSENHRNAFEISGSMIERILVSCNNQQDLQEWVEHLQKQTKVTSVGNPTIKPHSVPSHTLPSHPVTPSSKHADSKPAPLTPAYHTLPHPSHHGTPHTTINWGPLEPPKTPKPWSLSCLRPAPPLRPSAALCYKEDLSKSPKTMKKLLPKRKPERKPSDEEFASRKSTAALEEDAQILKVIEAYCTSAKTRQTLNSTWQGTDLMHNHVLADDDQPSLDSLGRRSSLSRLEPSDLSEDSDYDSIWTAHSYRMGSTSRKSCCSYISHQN
UniProt O43182: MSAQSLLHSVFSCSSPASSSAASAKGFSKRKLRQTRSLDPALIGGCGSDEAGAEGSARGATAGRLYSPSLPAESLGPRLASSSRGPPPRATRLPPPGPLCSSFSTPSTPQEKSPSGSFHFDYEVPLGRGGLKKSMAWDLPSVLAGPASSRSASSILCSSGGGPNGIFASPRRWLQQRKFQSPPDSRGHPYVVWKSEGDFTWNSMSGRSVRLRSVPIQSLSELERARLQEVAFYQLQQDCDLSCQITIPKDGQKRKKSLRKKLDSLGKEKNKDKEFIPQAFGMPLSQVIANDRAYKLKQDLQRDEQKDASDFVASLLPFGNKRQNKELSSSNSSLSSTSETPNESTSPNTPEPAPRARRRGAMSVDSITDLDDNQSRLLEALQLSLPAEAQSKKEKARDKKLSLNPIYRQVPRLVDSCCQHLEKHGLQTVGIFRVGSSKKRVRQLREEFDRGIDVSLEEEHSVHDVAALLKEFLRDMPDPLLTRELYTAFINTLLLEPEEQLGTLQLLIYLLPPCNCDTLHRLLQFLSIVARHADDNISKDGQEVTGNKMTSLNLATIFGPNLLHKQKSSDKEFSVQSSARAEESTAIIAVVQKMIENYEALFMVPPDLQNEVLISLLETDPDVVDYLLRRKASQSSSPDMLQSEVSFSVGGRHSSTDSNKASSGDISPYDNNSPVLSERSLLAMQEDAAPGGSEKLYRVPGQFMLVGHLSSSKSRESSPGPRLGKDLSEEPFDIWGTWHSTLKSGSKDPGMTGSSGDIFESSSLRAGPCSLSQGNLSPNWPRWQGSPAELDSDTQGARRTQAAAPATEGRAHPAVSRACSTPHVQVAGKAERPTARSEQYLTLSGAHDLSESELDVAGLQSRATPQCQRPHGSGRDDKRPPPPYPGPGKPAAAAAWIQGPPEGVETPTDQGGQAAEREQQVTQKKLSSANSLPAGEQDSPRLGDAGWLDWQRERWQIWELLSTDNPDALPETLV
UniProt P15514, whole entry, looked up: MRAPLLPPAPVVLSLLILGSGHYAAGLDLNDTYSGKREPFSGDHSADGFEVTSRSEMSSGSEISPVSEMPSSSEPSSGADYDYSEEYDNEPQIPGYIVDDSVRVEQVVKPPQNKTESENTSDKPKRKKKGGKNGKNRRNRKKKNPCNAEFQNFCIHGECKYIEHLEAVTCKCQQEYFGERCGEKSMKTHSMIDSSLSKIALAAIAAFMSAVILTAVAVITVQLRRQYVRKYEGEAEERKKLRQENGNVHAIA
UniProt Q8NFD5, whole entry, looked up: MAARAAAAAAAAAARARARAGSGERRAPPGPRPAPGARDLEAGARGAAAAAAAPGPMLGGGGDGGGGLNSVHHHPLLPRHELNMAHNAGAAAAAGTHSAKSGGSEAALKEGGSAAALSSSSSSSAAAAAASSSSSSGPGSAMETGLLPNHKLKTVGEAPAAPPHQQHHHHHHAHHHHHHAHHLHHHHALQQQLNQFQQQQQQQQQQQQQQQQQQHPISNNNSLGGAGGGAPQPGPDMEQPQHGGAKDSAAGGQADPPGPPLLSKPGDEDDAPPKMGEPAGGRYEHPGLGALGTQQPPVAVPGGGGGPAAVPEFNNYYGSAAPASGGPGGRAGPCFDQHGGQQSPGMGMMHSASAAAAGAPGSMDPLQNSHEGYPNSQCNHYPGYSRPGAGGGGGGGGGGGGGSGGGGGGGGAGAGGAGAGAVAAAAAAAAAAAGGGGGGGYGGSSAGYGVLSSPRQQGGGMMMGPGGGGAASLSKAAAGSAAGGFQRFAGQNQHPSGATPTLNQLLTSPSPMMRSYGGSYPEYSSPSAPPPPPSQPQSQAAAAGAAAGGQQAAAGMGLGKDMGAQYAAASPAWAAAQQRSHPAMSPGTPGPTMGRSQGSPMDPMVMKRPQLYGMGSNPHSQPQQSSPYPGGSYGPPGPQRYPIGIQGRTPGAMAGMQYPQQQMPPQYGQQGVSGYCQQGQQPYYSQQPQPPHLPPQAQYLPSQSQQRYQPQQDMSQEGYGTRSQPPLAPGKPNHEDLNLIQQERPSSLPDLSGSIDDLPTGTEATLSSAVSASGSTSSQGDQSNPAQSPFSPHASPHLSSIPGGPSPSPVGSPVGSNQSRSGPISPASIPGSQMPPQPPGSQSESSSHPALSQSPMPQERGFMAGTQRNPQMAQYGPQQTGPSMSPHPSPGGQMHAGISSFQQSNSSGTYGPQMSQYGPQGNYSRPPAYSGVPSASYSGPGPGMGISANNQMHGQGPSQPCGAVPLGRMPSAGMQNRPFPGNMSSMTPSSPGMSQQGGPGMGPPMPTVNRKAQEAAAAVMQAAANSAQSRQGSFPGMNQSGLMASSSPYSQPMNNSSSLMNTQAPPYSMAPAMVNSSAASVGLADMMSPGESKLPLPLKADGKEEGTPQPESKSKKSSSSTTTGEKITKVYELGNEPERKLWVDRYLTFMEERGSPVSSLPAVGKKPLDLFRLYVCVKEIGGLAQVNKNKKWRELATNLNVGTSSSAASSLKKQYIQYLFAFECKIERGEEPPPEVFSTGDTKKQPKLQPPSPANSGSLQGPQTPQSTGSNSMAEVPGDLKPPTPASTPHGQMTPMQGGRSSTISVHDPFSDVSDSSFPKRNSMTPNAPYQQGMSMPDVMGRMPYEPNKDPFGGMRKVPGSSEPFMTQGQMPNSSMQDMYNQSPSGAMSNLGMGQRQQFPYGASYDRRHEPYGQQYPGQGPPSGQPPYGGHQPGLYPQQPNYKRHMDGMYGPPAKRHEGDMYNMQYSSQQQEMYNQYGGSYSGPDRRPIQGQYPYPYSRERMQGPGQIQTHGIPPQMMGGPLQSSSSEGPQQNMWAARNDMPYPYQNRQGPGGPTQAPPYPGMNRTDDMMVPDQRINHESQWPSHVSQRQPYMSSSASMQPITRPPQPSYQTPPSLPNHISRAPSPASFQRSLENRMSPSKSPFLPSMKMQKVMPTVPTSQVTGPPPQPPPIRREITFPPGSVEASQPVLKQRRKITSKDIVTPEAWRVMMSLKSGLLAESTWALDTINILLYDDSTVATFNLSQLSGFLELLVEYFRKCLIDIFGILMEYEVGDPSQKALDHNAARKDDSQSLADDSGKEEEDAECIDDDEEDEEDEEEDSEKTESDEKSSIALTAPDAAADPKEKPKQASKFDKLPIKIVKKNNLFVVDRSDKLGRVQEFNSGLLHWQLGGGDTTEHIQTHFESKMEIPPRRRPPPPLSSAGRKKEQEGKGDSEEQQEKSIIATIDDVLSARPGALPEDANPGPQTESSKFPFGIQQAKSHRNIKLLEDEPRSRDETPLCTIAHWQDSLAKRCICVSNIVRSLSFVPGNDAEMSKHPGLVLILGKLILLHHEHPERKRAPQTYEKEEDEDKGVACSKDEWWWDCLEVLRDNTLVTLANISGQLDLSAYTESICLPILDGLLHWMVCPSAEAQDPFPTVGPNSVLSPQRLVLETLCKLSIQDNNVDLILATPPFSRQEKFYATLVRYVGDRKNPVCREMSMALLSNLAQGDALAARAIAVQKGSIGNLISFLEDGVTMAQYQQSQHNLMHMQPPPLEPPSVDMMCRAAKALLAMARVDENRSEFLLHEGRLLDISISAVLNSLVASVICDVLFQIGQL
UniProt Q6P6B7: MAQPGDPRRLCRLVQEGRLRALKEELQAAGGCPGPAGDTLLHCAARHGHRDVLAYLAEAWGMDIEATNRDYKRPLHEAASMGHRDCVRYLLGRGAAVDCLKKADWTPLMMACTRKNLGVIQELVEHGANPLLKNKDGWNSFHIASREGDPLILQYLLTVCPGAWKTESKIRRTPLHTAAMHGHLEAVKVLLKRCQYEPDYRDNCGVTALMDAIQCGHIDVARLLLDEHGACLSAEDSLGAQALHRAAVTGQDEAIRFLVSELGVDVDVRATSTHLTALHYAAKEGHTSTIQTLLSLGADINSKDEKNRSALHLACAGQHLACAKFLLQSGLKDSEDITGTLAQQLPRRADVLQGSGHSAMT
UniProt Q9NZN5: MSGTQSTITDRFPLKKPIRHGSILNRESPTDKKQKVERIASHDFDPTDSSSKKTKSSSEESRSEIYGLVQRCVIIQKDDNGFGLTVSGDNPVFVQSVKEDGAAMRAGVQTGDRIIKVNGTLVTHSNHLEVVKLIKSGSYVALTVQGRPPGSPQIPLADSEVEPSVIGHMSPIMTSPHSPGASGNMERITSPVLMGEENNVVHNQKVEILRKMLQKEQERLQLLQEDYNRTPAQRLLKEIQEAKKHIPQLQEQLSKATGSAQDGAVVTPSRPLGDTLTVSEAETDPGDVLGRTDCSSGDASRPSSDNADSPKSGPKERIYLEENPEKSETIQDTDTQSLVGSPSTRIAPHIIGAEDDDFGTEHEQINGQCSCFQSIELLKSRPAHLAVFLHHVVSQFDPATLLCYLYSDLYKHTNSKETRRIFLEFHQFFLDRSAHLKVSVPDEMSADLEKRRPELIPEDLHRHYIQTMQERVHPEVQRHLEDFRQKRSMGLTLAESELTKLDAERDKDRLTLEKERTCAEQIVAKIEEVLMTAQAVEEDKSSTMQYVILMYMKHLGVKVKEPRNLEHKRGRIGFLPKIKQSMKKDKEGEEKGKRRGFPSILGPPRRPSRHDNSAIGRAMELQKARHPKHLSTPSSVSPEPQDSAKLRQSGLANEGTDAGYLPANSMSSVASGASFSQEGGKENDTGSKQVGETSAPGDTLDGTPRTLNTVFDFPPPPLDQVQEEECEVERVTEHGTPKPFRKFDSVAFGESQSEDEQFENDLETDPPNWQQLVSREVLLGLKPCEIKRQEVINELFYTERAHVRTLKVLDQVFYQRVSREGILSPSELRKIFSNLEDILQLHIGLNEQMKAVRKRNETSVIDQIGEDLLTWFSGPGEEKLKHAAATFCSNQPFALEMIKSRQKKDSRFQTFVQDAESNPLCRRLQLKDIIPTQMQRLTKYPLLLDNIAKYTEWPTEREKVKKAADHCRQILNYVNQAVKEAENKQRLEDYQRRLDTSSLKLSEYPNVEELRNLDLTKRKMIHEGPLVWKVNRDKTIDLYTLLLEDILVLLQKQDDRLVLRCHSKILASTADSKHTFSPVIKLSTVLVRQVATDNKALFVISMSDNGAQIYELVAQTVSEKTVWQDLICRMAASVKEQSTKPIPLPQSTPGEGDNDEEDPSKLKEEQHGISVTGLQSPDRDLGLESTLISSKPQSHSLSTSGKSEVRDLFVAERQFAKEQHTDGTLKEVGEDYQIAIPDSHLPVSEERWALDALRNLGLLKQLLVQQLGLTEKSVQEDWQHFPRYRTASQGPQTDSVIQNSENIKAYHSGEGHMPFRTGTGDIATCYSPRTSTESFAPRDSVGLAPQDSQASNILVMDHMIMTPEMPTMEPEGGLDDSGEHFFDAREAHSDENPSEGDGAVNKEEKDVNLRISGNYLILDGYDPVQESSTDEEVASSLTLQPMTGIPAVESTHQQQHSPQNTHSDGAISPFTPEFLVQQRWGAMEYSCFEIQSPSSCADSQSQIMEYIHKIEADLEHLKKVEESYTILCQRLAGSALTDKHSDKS
UniProt P02655: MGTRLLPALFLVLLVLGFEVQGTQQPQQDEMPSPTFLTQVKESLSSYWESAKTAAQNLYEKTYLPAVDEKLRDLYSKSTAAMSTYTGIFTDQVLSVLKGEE
UniProt Q9NUS5: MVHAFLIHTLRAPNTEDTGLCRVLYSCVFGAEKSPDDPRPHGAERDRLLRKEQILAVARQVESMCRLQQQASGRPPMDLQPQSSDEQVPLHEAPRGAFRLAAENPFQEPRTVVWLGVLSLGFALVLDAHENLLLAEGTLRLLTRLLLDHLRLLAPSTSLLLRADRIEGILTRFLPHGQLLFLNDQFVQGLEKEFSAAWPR

Key:
Assay in all cases: log2 fold change, soluble protein after heating vs DMSO (PISA); higher = thermal stabilisation; K562 cells, 10 uM, 30 min; active = over 0.2 and 3.5 SD of the protein, either way, in both replicates (recomputed)
volasertib = compound: CC[C@@H]1C(=O)N(C)c2cnc(Nc3ccc(C(=O)N[C@H]4CC[C@H](N5CCN(CC6CC6)CC5)CC4)cc3OC)nc2N1C(C)C [volasertib]
How it was run: (§1)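 Quantification of soluble protein used TMTpro 16plex LC-MS/MS, with channel sums equalised. Samples were the supernatant after 21,000xg for 90 min of pooled aliquots from K562 cells (2×10^6 cells/mL) treated with 10 μM compound for 30 min, heated for 3 min over 48°C-58°C, and extracted in PBS with 0.5% NP-40 at 4°C. Values, from duplicates, describe thermal stability against control samples on a log2 fold-change scale.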

[1] = compound: CC[C@H](C)N1C=C(C2=C(C=C(C=C21)C3=CN=C(C=C3)N4CCNCC4)C(=O)NCC5=C(C=C(NC5=O)C)C)C
How it was run: as §1

epoxomicin = compound: CC[C@H](C)[C@@H](C(=O)N[C@@H]([C@@H](C)O)C(=O)N[C@@H](CC(C)C)C(=O)[C@]1(CO1)C)NC(=O)[C@H]([C@@H](C)CC)N(C)C(=O)C [epoxomicin]
How it was run: as §1

[2] = compound: CCn1c(C(=O)N(C2CC2)C2CC2)cc2c3c(ncn3C)c(Nc3cc(C)n(C)n3)nc21
How it was run: as §1

[3] = compound: CCn1cc(-c2ccnc3[nH]c(-c4cccc(CN(C)C)c4)cc23)c(-c2ccc(NC(=O)N(C)C)cc2)n1
How it was run: as §1

[4] = compound: CN(C)CC(=O)Nc1ccc2[nH]c(=O)c3ccccc3c2c1
How it was run: as §1

rosiglitazone = compound: CN(CCOC1=CC=C(C=C1)C[C@H]2C(=O)NC(=O)S2)C3=CC=CC=N3 (racemic) [rosiglitazone]
How it was run: as §1

[5] = compound: CN1C2=C(C3=C1C(=O)N(N=C3)CC4=CC(=CC=C4)N)SC(=C2)S(=O)C
How it was run: as §1

[6] = compound: CN1CCC(CNc2ccc3ncc(-c4cccc(OC(F)(F)F)c4)n3n2)CC1
How it was run: as §1

saracatinib = compound: CN1CCN(CCOc2cc(OC3CCOCC3)c3c(Nc4c(Cl)ccc5c4OCO5)ncnc3c2)CC1 [saracatinib]
How it was run: as §1

sotrastaurin = compound: CN1CCN(c2nc(C3=C(c4c[nH]c5ccccc45)C(=O)NC3=O)c3ccccc3n2)CC1 [sotrastaurin]
How it was run: as §1

alvocidib = compound: CN1CC[C@H](c2c(O)cc(O)c3c(=O)cc(-c4ccccc4Cl)oc23)[C@H](O)C1 [alvocidib]
How it was run: as §1

Tubastatin A = compound: CN1CCc2c(c3ccccc3n2Cc2ccc(C(=O)NO)cc2)C1 [Tubastatin A]
How it was run: as §1

[7] = compound: CNC(=O)C1=CC=CC=C1NC2=NC(=NC=C2Cl)NC3=C(C=C(C=C3)N4CCOCC4)OC
How it was run: as §1

defactinib = compound: CNC(=O)c1ccc(Nc2ncc(C(F)(F)F)c(NCc3nccnc3N(C)S(C)(=O)=O)n2)cc1 [defactinib]
How it was run: as §1

[8] = compound: CNc1nc(-c2ccc3c(N)n[nH]c3c2)cc(N2C[C@@H](C(=O)NC3CCCCC3)CC[C@H]2C)n1
How it was run: as §1

[9] = compound: COC(=O)[C@H](CCSC)NC(=O)C1=C(C=C(C=C1)NC[C@H](CS)N)C2=CC=CC=C2
How it was run: as §1

[10] = compound: CC[C@@H]1C(=O)N(C)c2cnc(Nc3ccc(C(=O)NC4CCN(C)CC4)cc3OC)nc2N1C1CCCC1
How it was run: as §1

rucaparib = compound: CNCc1ccc(-c2[nH]c3cc(F)cc4c3c2CCNC4=O)cc1 [rucaparib]
How it was run: as §1

encorafenib = compound: COC(=O)N[C@@H](C)CNc1nccc(-c2cn(C(C)C)nc2-c2cc(Cl)cc(NS(C)(=O)=O)c2F)n1 [encorafenib]
How it was run: as §1

Measured: log2 fold change

ARHGEF7 isoform 5 (UniProt Q14155)
inactive: volasertib -0.349 | [1] -0.009 | epoxomicin -0.028 | [2] -0.064 | [3] 0.08 | [4] 0.039 | rosiglitazone -0.02 | [5] 0.068 | [6] -0.016 | saracatinib -0.033 | sotrastaurin -0.183 | alvocidib -0.079 | Tubastatin A -0.033 | [7] 0.022 | defactinib -0.137 | [8] -0.027 | [9] -0.089

API5 isoform 1 (UniProt Q9BZZ5)
inactive: volasertib 0.094 | [1] 0.05 | epoxomicin 0.22 | [4] 0.091 | [5] -0.081 | saracatinib -0.067 | alvocidib -0.101 | Tubastatin A 0.07 | defactinib -0.2 | [8] 0.311 | [9] -0.262

ANKS1A (UniProt Q92625)
inactive: [10] 0.039 | epoxomicin 0.001 | rosiglitazone 0.06 | sotrastaurin 0.028 | alvocidib -0.034 | Tubastatin A 0.063 | rucaparib 0.449 | encorafenib 0.103

AP2S1 (UniProt M0QZ21)
inactive: Tubastatin A 0.335

APH1B (UniProt Q8WW43)
inactive: [3] 0.036 | [6] 0.034 | sotrastaurin 0.032

ARHGAP6 (UniProt O43182)
inactive: [10] -0.049 | [1] 0.123 | epoxomicin -0.115 | [5] 0.274 | saracatinib 0.005 | sotrastaurin 0.048 | Tubastatin A 0.224 | rucaparib 0.338 | [8] -0.009 | encorafenib 0.19

ARHGAP5 (UniProt Q13017)
inactive: [10] -0.149 | epoxomicin 0.027 | [2] -0.126 | rosiglitazone 0.048 | alvocidib -0.052 | Tubastatin A -0.043 | [7] -0.112 | rucaparib 0.05 | encorafenib 0.013

2 entries picked at random from the list so far, as already listed:
ARHGAP5 (UniProt Q13017)
inactive: [10] -0.149 | epoxomicin 0.027 | [2] -0.126 | rosiglitazone 0.048 | alvocidib -0.052 | Tubastatin A -0.043 | [7] -0.112 | rucaparib 0.05 | encorafenib 0.013

AP2S1 (UniProt M0QZ21)
inactive: Tubastatin A 0.335

Remaining list, next part:

AREG (UniProt P15514)
inactive: volasertib 0.242 | [2] -0.003 | [5] 0.009 | saracatinib 0.09 | [7] -0.087 | [8] -0.035

ARID1B isoform 3 (UniProt Q8NFD5)
inactive: rosiglitazone -0.093

ANKRD16 (UniProt Q6P6B7)
inactive: volasertib -0.019 | epoxomicin 0.012 | [2] -0.053 | [4] -0.083 | rosiglitazone -0.059 | sotrastaurin -0.291 | [7] 0.042 | defactinib -0.094 | [9] 0.016

APLF (UniProt Q8IW19)
inactive: volasertib 0.079 | alvocidib 0.304

ARHGEF12 (UniProt Q9NZN5)
inactive: volasertib -0.283 | epoxomicin -0.324 | [2] -0.062 | [4] 0.055 | rosiglitazone -0.076 | [5] 0.251 | saracatinib 0.128 | sotrastaurin -0.291 | Tubastatin A -0.111 | [7] -0.022 | defactinib 0.11 | [8] 0.024 | [9] -0.227

APOC2 (UniProt P02655)
inactive: [1] -0.056 | [3] -0.404 | [4] -0.045 | [5] 0.095 | [6] 0.018 | saracatinib -0.066 | alvocidib -0.18 | defactinib -0.051 | [8] 0.002 | [9] -0.013

ARHGEF18 (UniProt Q6ZSZ5)
inactive: volasertib -0.059 | [1] -0.105 | epoxomicin -0.118 | [2] -0.06 | [3] 0.057 | [4] -0.069 | rosiglitazone 0.036 | [5] 0.08 | [6] -0.101 | saracatinib -0.106 | sotrastaurin -0.016 | alvocidib 0.121 | Tubastatin A 0.124 | [7] -0.165 | defactinib 0.044 | [8] -0.002 | [9] -0.143

ARFIP1 isoform 2 (UniProt P53367)
active: [6] -0.512
inactive: volasertib -0.134 | [1] 0.071 | epoxomicin -0.004 | [3] 0.259 | [5] -0.124 | saracatinib 0.026 | sotrastaurin -0.041 | [7] -0.268 | [8] 0.279

ANKRD26 (UniProt Q9UPS8)
inactive: volasertib 0.017 | [1] -0.009 | [3] -0.207 | [4] 0.028 | [6] 0.022 | sotrastaurin 0.003 | alvocidib -0.042 | Tubastatin A -0.071 | defactinib 0.18 | [9] -0.035

ARHGEF10 (UniProt O15013)
inactive: [4] -0.225 | rosiglitazone -0.008 | defactinib -0.051 | [9] 0.16

AP5S1 (UniProt Q9NUS5)
inactive: [1] 0.08 | [2] -0.085 | [7] 0.039

AP4B1 (UniProt Q9Y6B7)
inactive: [10] -0.119 | [1] 0.073 | [2] 0.046 | [3] 0.071 | [4] 0.046 | rosiglitazone -0.062 | [5] 0.141 | [6] -0.178 | saracatinib 0.022 | sotrastaurin -0.343 | alvocidib -0.158 | Tubastatin A 0.113 | [7] -0.054 | defactinib -0.052 | rucaparib 0.091 | [8] 0.24 | encorafenib 0.297 | [9] -0.027
